In article PMC10516904, “Dual enzyme-powered chemotactic cross β amyloid based functional nanomotors” (Nature Communications, 2023):
These are yes or no findings as the source states them, for the method shown. Some binding calls cover weakened binding; strength is not graded here.

The chains behind the UniProt entries cited, without tags or fusion partners.
UniProt P00004: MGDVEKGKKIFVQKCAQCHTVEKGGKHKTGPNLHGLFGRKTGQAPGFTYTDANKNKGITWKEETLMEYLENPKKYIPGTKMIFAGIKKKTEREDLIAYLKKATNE

Assays:
[1] = biological target: T1, Ac-KLVFFAL-CONH2; assay: confocal microscopy (CLSM); fluorophore-labelled enzymes on long and sonicated nanotubes; both purified
T1 sequence (peptide, N-terminal acetyl (on the lysine); C-terminal amide): KLVFFAL

[2] = biological target: T1, Ac-KLVFFAL-CONH2; assay: TEM; urease bound to long and to sonicated nanotubes; both purified
[3] = biological target: T1, Ac-KLVFFAL-CONH2; assay: co-sedimentation; short nanotubes (sonicated 30 min), Ac-KL 200 uM, exposed urease 15 uM (for dual motors also CytC, 20 uL of 500 uM stock), in water, 1 h incubation, centrifuged 14,000 rpm 30 min 4 C, pellet washed twice; enzyme in the supernatants estimated by Bradford assay; both purified

| Substance | binding [1] | other results |
| --- | --- | --- |
| FITC labelled CytC (from UniProt P00004 1-105) (enzyme) | binds | – |
| RITC labelled urease (from UniProt P07374 1-840) (enzyme) | binds | – |
| urease (from UniProt P07374 1-840) (enzyme) | – | binding [2]: binds |
| Cytochrome C (oxidized) (from UniProt P00004 1-105) (enzyme) | – | binding [3]: binds |
